This assay concerns the target SPOP (transfected construct) (UniProt O43791). Put plainly: co-IP; IP assay of HMGCS1‐WT or HMGCS1‐ΔSBC with SPOP (Figure 5G); cells not stated in the legend.

Sequences of proteins named here, by UniProt entry; tags and fusion partners are left off. A change or cut given only in a name is not applied to a line headed by its entry.
UniProt O43791: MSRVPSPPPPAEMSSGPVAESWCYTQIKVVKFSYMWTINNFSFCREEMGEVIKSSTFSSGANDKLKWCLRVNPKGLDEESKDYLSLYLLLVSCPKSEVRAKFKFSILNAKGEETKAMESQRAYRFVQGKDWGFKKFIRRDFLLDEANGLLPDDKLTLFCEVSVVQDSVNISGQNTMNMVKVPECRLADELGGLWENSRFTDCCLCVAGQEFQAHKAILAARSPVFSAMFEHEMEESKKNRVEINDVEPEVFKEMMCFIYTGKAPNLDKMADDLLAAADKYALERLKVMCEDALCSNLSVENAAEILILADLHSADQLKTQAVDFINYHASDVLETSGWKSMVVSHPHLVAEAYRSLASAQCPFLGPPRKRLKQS
UniProt Q01581: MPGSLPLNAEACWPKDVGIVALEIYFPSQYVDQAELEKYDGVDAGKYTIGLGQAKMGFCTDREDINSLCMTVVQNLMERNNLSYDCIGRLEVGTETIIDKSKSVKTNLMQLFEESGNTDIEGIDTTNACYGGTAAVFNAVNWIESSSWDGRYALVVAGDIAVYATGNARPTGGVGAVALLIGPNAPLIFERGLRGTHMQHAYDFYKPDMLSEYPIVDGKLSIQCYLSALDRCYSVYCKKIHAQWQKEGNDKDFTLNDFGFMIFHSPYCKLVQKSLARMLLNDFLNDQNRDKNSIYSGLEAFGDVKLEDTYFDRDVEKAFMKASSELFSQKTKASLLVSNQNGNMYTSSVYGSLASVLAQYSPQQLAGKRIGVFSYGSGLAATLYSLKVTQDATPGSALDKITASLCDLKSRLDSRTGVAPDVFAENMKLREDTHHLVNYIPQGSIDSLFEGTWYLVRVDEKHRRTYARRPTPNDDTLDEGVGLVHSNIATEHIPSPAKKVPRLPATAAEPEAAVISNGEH

Results are given in words; binding and its absence hold for the method and conditions named. Binding seen in cells or lysates may run through a third protein.

Take HMGCS1‐ΔSBC (from UniProt Q01581): the binding result is on record as “no binding”.

For the origin of these results see publication PMC11005689.
